Test results reported in publication PMC4483769.
No constants are given. Whether binding was seen depends on the method and setting. In cells and extracts the contact can be indirect. A result given as binding can be weak or reduced; the word gives no strength. Where a sequence is shown, tags or fusion partners need not be part of it.

Molecular target: T1, 3×Flag-GPR177 (UniProt Q5T9L3)
T1 sequence: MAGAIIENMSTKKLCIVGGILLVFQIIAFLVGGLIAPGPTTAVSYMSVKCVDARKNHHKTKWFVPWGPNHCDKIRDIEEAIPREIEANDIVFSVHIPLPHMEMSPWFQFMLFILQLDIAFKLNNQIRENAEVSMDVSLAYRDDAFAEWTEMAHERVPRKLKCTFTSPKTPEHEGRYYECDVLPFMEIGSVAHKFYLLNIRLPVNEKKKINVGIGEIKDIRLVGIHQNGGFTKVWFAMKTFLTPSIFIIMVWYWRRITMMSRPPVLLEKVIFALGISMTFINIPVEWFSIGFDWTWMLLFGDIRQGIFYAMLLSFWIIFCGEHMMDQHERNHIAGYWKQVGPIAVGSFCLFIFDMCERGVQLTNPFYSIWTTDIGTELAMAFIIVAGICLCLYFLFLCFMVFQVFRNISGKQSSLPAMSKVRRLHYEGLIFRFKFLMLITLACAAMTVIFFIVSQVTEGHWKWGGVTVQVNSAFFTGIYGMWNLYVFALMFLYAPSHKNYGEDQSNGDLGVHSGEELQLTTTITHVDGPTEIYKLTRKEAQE
Experiment: co-IP; anti-Flag M2 affinity gel, 2 mg total lysate of 3×Flag-GPR177 stable HeLa cells, 8 h at 4°C, washed three times with 50 mM Tris HCl pH 7.5, 150 mM NaCl, 1 mM EDTA, 1% Triton X-100, eluted with 3×Flag peptides; precipitates blotted for vesicular markers

Substance	binding
RAB5 (human (endogenous in HeLa))	binds
RAB7 (human (endogenous in HeLa))	no binding
RAB9 (human (endogenous in HeLa))	binds
RAB11 (human (endogenous in HeLa))	no binding
